Experimental data: paper doi:10.1101/2024.08.17.24311658

Amino acid sequences for entries named in this document (tags omitted). A change or cut given only in a name is not applied to a line headed by its entry.
UniProt Q06481: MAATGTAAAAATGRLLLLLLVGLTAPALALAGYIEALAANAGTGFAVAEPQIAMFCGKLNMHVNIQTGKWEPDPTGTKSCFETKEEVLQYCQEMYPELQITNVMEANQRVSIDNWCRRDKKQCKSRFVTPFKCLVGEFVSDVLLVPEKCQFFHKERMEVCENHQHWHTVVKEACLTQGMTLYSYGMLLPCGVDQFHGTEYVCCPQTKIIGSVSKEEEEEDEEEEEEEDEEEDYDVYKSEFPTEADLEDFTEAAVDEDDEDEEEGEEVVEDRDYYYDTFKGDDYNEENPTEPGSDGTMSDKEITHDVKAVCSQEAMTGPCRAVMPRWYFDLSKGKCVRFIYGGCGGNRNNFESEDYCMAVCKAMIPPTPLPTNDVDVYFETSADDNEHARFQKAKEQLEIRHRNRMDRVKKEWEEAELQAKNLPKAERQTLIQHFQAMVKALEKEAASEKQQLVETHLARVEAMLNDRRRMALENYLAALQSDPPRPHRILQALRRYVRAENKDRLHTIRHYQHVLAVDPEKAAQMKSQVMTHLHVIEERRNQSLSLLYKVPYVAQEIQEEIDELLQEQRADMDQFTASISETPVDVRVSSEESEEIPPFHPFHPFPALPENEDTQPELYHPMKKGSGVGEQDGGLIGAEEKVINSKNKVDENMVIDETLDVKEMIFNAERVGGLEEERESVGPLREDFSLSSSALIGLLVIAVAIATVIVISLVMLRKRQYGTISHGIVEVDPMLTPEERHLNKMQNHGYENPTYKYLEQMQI
UniProt P05067: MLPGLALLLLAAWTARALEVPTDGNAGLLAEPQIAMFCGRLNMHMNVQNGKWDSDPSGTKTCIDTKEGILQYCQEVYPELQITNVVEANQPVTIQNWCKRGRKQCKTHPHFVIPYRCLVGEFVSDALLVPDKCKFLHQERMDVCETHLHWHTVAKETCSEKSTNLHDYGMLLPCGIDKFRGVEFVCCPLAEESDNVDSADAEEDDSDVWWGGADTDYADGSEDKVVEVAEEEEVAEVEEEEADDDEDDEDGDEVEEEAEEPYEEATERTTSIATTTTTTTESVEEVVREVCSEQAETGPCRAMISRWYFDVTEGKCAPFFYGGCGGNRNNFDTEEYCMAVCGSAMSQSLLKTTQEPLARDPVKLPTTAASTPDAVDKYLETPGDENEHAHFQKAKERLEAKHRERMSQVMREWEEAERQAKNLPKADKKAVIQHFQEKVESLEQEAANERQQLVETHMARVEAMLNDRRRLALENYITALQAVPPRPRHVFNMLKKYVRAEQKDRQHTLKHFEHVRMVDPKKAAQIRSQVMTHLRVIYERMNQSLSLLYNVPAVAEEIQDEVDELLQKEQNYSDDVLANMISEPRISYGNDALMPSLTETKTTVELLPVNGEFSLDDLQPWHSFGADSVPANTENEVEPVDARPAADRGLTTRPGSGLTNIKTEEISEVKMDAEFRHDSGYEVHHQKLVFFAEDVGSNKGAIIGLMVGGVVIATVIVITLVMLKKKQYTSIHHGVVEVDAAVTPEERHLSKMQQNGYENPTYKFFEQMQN

Target: T1, mCherry-SNX17 (UniProt Q15036)
T1 sequence: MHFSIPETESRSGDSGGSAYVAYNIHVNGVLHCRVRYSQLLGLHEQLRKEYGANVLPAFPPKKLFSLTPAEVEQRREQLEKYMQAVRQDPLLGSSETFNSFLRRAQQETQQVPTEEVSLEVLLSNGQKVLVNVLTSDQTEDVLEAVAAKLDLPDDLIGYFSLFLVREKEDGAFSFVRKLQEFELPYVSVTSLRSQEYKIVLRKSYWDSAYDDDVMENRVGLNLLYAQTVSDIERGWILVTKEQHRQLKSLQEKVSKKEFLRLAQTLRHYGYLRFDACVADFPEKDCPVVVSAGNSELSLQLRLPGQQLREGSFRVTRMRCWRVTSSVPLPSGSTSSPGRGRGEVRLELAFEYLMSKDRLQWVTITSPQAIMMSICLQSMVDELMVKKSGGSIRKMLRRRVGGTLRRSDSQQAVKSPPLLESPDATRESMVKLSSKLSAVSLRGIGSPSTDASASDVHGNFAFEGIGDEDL
Test: co-IP

Row | binding | Substance
1 | binds | GFP-transmembrane-cytoplasmic domain of Human-APLP2 (from UniProt Q06481) (domain or fragment)
2 | binds | GFP-transmembrane-cytoplasmic domain of Human-APP (from UniProt P05067) (domain or fragment)

These are yes or no findings as the source states them, for the method shown. In cells and extracts the contact can be indirect. Binding calls can cover weak binding; strength is not graded here.
